Reference: publication PMC12109396
No constants are given. Whether binding was seen depends on the method and setting. In cells and extracts the contact can be indirect. A yes stands for co-enrichment or nearness to the bait. Other partners may have been found.

Sequences of proteins named here, by UniProt entry; tags and fusion partners are left off.
UniProt Q12923: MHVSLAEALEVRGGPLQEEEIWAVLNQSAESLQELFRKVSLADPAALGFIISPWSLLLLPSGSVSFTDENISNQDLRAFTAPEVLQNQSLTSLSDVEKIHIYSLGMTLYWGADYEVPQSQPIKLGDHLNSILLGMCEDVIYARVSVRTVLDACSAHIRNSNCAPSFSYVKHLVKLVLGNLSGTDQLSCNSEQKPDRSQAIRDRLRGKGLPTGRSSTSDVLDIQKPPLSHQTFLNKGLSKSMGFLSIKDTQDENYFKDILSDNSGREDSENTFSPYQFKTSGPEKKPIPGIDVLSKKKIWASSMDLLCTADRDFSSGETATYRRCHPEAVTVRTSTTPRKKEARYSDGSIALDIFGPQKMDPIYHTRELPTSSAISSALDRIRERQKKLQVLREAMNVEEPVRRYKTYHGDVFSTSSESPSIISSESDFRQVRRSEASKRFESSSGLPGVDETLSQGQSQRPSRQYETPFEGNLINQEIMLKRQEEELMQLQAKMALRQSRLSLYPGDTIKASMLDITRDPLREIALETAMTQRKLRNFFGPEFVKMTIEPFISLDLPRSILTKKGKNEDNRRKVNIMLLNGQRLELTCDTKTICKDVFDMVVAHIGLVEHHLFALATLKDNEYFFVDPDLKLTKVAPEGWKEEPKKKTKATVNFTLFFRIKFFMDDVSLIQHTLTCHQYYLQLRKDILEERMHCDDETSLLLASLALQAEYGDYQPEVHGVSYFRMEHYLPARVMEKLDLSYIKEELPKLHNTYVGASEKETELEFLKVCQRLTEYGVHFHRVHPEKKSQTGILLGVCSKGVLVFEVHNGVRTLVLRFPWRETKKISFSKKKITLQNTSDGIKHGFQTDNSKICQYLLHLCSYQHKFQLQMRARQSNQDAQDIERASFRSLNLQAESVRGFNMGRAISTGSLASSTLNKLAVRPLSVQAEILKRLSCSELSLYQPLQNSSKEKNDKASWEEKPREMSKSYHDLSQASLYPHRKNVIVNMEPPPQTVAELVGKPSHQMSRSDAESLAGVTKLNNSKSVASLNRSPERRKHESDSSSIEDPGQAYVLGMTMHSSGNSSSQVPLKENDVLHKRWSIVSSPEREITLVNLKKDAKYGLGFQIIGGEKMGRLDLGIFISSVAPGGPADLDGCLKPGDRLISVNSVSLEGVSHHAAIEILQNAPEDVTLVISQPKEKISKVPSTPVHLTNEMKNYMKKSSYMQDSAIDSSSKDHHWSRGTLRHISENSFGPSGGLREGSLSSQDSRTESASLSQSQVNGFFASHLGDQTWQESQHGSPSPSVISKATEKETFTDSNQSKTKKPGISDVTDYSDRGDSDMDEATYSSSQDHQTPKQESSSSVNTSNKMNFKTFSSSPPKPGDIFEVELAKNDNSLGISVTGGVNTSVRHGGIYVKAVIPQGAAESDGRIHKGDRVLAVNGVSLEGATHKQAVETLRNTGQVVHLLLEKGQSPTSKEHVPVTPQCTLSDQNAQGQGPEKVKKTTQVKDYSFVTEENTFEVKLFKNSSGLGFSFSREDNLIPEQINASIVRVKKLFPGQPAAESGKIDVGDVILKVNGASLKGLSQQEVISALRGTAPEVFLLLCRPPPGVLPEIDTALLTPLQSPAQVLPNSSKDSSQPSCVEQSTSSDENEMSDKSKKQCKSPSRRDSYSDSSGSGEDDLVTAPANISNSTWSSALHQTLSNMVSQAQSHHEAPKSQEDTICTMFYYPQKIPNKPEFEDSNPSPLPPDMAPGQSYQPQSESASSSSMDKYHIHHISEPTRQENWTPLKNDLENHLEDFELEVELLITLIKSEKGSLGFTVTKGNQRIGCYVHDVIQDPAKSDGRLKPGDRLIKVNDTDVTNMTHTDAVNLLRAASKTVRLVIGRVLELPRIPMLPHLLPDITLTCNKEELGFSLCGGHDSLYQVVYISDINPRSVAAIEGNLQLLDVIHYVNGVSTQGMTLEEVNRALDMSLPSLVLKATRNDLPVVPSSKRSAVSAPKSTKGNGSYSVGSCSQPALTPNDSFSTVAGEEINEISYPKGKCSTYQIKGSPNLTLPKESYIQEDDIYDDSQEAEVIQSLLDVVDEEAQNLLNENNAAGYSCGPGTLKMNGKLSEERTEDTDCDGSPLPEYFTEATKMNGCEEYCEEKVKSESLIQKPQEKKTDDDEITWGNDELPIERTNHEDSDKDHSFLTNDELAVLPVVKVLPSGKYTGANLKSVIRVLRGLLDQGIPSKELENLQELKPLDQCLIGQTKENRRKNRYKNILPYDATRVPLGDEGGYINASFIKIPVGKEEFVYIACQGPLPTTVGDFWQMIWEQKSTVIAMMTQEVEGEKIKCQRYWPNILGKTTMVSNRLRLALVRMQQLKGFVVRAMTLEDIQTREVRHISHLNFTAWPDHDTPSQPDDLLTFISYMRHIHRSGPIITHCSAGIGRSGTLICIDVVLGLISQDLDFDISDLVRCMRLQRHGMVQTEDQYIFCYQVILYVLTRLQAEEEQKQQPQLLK

Biological target: HA-TurboID-KRAS G12V (human) (UniProt P01116)
Experiment: proximity labelling; HA-TurboID-KRAS (WT, G12C, G12D, G12V) stably expressed in HEK293T; 50 μM biotin for 2 h (tag-only control 0.5 h); biotinylated proteins captured on NeutrAvidin agarose (14 h, 4 °C), SDS-PAGE, in-gel trypsin digestion, LC-MS/MS; hits: peptide count ≥ 2 and found only in the KRAS group or fold change ≥ 2 against HA-TurboID tag-only; mutants against WT: FC ≥ 2 increased, FC ≤ 0.5 decreased

## PTPN13 (from UniProt Q12923 1-2485)
  binding: binds
